In US12209086B2, “FGFR3 inhibitor compounds” (ELI LILLY AND COMPANY, priority 2021, dated 2025):
Some results were stated once for a whole list of compounds, not compound by compound.

Amino acid sequences for entries named in this document (tags omitted). Residues count along the entry.
UniProt P22607, 23-806: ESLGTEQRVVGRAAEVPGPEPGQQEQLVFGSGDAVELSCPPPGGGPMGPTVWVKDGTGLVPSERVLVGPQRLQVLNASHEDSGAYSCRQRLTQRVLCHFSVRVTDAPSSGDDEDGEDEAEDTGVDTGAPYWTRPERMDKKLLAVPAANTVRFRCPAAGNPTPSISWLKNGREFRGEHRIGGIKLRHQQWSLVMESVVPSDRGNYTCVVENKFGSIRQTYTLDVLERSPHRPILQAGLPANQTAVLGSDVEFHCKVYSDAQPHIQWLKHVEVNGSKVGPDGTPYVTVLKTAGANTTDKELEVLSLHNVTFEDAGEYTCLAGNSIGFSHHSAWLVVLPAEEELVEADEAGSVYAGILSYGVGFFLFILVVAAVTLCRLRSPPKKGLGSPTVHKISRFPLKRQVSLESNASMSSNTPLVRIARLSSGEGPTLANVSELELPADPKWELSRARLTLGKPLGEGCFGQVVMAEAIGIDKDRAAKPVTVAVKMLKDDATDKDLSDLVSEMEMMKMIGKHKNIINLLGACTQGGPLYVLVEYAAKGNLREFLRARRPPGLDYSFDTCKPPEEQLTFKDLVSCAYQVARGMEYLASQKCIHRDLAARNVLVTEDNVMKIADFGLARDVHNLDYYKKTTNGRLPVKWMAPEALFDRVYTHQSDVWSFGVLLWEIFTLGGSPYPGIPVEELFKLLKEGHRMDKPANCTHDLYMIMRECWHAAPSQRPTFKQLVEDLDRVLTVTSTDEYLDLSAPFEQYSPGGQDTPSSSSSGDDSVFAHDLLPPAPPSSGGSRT

What follows are compounds tested against T1, FGFR3 protein (Homo sapiens, UniProt P22607) (assay: FGFR3 enzyme assay (KinEASE-TK HTRF kinase assay)). Details: 0.25 nM enzyme, ATP at Km, 15 min pre-incubation on ice, 30 min at 30° C.
T1 construct: purchased Reaction Biology 1068
Assay type: biochemical

IC50, < 0.35 µM:
Cc1c(-c2cc(O[C@H](C)c3ccccn3)n3c(C#N)cnc3c2)nnn1C1CCN(C#N)CC1 [Example 201, 4-(4-[3-Cyano-5-[(1R)-1-(pyridin-2-yl)ethoxy]imidazo [1,2-a]pyridin-7-yl]-5-methyl-1,2,3-triazol-1-yl)piperidine-1-carbonitrile]
Cc1c(-c2cc(O[C@H](C)C3CCCCC3)c3c(C#N)cnn3c2)nnn1C1CCN(C#N)CC1 [Example 202, 4-(4-[3-Cyano-4-[(1R)-1-cyclohexylethoxy]pyrazolo[1,5-a]pyridin-6-yl]-5-methyl-1,2,3-triazol-1-yl)piperidine-1-carbonitrile]
COc1cc(-c2nnn([C@@H]3CCN(C#N)C3)c2C)cn2ncc(C#N)c12 [Example 203, (3R)-3-(4-[3-Cyano-4-methoxypyrazolo[1,5-a]pyridin-6-yl]-5-methyl-1,2,3-triazol-1-yl)pyrrolidine-1-carbonitrile]
COc1cc(-c2nnn([C@H]3CCN(C#N)C3)c2C)cn2ncc(C#N)c12 [Example 204, (3S)-3-(4-[3-Cyano-4-methoxypyrazolo[1,5-a]pyridin-6-yl]-5-methyl-1,2,3-triazol-1-yl)pyrrolidine-1-carbonitrile]
Cc1c(-c2cc(O[C@H](C)c3ccccc3)c3c(C#N)cnn3c2)nnn1C1CCN(C#N)CC1 [Example 205, 4-(4-[3-Cyano-4-[(1R)-1-phenyl-ethoxy]pyrazolo[1,5-a]pyridin-6-yl]-5-methyl-1,2,3-triazol-1-yl)piperidine-1-carbonitrile]
Cc1c(-c2cc(O[C@@H](c3ccccc3)C(F)(F)F)c3c(C#N)cnn3c2)nnn1C1CCN(C#N)CC1 [Example 206, 4-(4-[3-Cyano-4-[(1S)-2,2,2-trifluoro-1-phenyl-ethoxy]pyrazolo[1,5-a]pyridin-6-yl]-5-methyl-1,2,3-triazol-1-yl)piperidine-1-carbonitrile]
Cc1c(-c2cc(O[C@@H]3CCc4cccnc43)c3c(C#N)cnn3c2)nnn1C1CCN(C#N)CC1 [Example 207, 4-(4-[3-Cyano-4-[[(7R)-6,7-dihydro-5H-cyclopenta[b]pyridin-7-yl]oxy]pyrazolo [1,5-a]pyridin-6-yl]-5-methyl-1,2,3-triazol-1-yl) piperidine-1-carbonitrile]
Cc1c(-c2cc(O[C@H](C)c3ccc(F)cn3)n3c(C#N)cnc3c2)cnn1C1CCN(C#N)CC1 [Example 209]
Cc1c(-c2cc(O[C@@H]3CCc4cccnc43)n3c(C#N)cnc3c2)nnn1C1CCN(C#N)CC1 [Example 211, 7-[1-(1-Cyano-4-piperidyl)-5-methyl-triazol-4-yl]-5-[[(7R)-6,7-dihydro-5H-cyclopenta[b]pyridin-7-yl]oxy]imidazo [1,2-a]pyridine-3-carbonitrile]
Cc1c(-c2cc(O[C@H](C)c3ccccn3)n3c(C#N)cnc3c2)nnn1C1CC2(CCN(C#N)CC2)C1 [Example 212, 7-[1-(7-Cyano-7-azaspiro[3.5]nonan-2-yl)-5-methyl-triazol-4-yl]-5-[(1R)-1-(2-pyridyl)ethoxy]imidazo [1,2-a]pyridine-3-carbonitrile]
COc1cc(-c2cnn(C3CCN(C#N)CC3)c2C)cn2ncc(C(F)(F)F)c12 [Example 213, 4-[4-[4-Methoxy-3-(trifluoromethyl)pyrazolo [1,5-a]pyridin-6-yl]-5-methyl-pyrazol-1-yl]piperidine-1-carbonitrile]
Cc1c(-c2cc(O[C@H](C)c3ccc(F)cn3)c3c(CO)cnn3c2)nnn1C1CCN(C#N)CC1 [Example 214, 4-[4-[4-[(1R)-1-(5-Fluoro-2-pyridyl)ethoxy]-3-(hydroxymethyl)pyrazolo [1,5-a]pyridin-6-yl]-5-methyl-triazol-1-yl]piperidine-1-carbonitrile]
COc1cc(-c2cnn(C3CN([C@H]4CCCN(C#N)C4)C3)c2C)cn2ncc(C#N)c12 [Example 215, (3S)-3-[3-(4-[3-Cyano-4-methoxypyrazolo[1,5-a]pyridin-6-yl]-5-methylpyrazol-1-yl)azetidin-1-yl]piperidine-1-carbonitrile]
COc1cc(-c2cnn(C3CN([C@@H]4CCCN(C#N)C4)C3)c2C)cn2ncc(C#N)c12 [Example 216, (3R)-3-[3-(4-[3-Cyano-4-methoxypyrazolo[1,5-a]pyridin-6-yl]-5-methylpyrazol-1-yl)azetidin-1-yl]piperidine-1-carbonitrile]
COc1cc(-c2cnn(C3CN([C@@H]4C[C@H](C)N(C#N)C4)C3)c2C)cn2ncc(C#N)c12 [Example 217, (2S,4R)-4-[3-(4-[3-Cyano-4-methoxypyrazolo[1,5-a]pyridin-6-yl]-5-methylpyrazol-1-yl)azetidin-1-yl]-2-methylpyrrolidine-1-carbonitrile]
Cc1c(-c2cc(O[C@H](C)c3ccccn3)c3c(C#N)cnn3c2)cnn1C1CN([C@@H]2CCN(C#N)C2)C1 [Example 218, (3R)-3-[3-(4-[3-Cyano-4-[(1R)-1-(pyridin-2-yl)ethoxy]pyrazolo [1,5-a]pyridin-6-yl]-5-methylpyrazol-1-yl)azetidin-1-yl]pyrrolidine-1-carbonitrile]
Cc1c(-c2cc(O[C@H](C)c3ccccn3)c3c(C#N)cnn3c2)cnn1C1CN([C@H]2CCN(C#N)C2)C1 [Example 219, (3S)-3-[3-(4-[3-Cyano-4-[(1R)-1-(pyridin-2-yl)ethoxy]pyrazolo[1,5-a]pyridin-6-yl]-5-methylpyrazol-1-yl)azetidin-1-yl]pyrrolidine-1-carbonitrile]
COc1cc(-c2cnn(C3CN([C@@H]4C[C@@H](C)N(C#N)C4)C3)c2C)cn2ncc(C#N)c12 [Example 220, (2R,4R)-4-[3-(4-[3-Cyano-4-methoxypyrazolo[1,5-a]pyridin-6-yl]-5-methylpyrazol-1-yl)azetidin-1-yl]-2-methylpyrrolidine-1-carbonitrile]
COc1cc(-c2cnn(C3CN([C@@H]4CCN(C#N)C4)C3)c2C)cn2ncc(C#N)c12 [Example 222, (3R)-3-[3-(4-[3-Cyano-4-methoxypyrazolo[1,5-a]pyridin-6-yl]-5-methylpyrazol-1-yl)azetidin-1-yl]pyrrolidine-1-carbonitrile]
COc1cc(-c2cnn(C3CN([C@H]4CCN(C#N)C4)C3)c2C)cn2ncc(C#N)c12 [Example 223, (3S)-3-[3-(4-[3-Cyano-4-methoxypyrazolo[1,5-a]pyridin-6-yl]-5-methylpyrazol-1-yl)azetidin-1-yl]pyrrolidine-1-carbonitrile]
Cc1c(-c2cc(N[C@H](C)c3ccccn3)c3c(C#N)cnn3c2)cnn1C1CN([C@H]2CCN(C#N)C2)C1 [Example 224, 6-[1-[1-[(3S)-1-Cyanopyrrolidin-3-yl]azetidin-3-yl]-5-methyl-pyrazol-4-yl]-4-[[(1R)-1-(2-pyridyl)ethyl]amino] pyrazolo[1,5-a]pyridine-3-carbonitrile]
Cc1c(-c2cc(O[C@H](C)c3ccccn3)n3c(C#N)cnc3c2)cnn1C1CN(C2CC3CCC2N3C#N)C1 (stereo partly drawn) [Example 226, 7-[1-[1-(7-Cyano-7-azabicyclo[2.2.1]heptan-2-yl)azetidin-3-yl]-5-methyl-pyrazol-4-yl]-5-[(1R)-1-(2-pyridyl)ethoxy]imidazo [1,2-a]pyridine-3-carbonitrile]
COc1cc(-c2cnn(C3CCN(C#N)CC3)c2C)cn2ncc(C#N)c12 [Example 227, 4-(4-[3-Cyano-4-methoxypyrazolo[1,5-a]pyridin-6-yl]-5-methylpyrazol-1-yl)piperidine-1-carbonitrile]
COc1cc(-c2cnn(C3CCN(C4CN(C#N)C4)CC3)c2C)cn2ncc(C#N)c12 [Example 228, 3-[4-(4-[3-Cyano-4-methoxypyrazolo[1,5-a]pyridin-6-yl]-5-methylpyrazol-1-yl)piperidin-1-yl]azetidine-1-carbonitrile]
COc1cc(-c2cnn([C@@H]3CCN(C#N)C3)c2C)cn2ncc(C#N)c12 [Example 229, (3R)-3-(4-[3-Cyano-4-methoxypyrazolo[1,5-a]pyridin-6-yl]-5-methylpyrazol-1-yl)pyrrolidine-1-carbonitrile]
COc1cc(-c2cnn([C@H]3CCN(C#N)C3)c2C)cn2ncc(C#N)c12 [Example 230, (3S)-3-(4-[3-Cyano-4-methoxypyrazolo[1,5-a]pyridin-6-yl]-5-methylpyrazol-1-yl)pyrrolidine-1-carbonitrile]
COc1cc(-c2nnn(C3CCN(C#N)CC3)c2C)cn2ncc(C#N)c12 [Example 231, 4-(4-[3-Cyano-4-methoxypyrazolo[1,5-a]pyridin-6-yl]-5-methyl-1,2,3-triazol-1-yl)piperidine-1-carbonitrile]
COc1cc(-c2cnn(C3CN(C#N)C3)c2C)cn2ncc(C#N)c12 [Example 232, 3-(4-[3-Cyano-4-methoxypyrazolo[1,5-a]pyridin-6-yl]-5-methylpyrazol-1-yl)azetidine-1-carbonitrile]
COc1cc(-c2cnn(C3CN(C4CCN(C#N)CC4)C3)c2)cn2ncc(C#N)c12 [Example 234, 4-[3-(4-[3-Cyano-4-methoxypyrazolo[1,5-a]pyridin-6-yl]pyrazol-1-yl)azetidin-1-yl]piperidine-1-carbonitrile]
Cc1c(-c2cc(O[C@H](C)c3ccccn3)c3c(C#N)cnn3c2)nnn1C1CN(C2CCN(C#N)CC2)C1 [Example 235, 4-[3-(4-[3-Cyano-4-[(1R)-1-(pyridin-2-yl)ethoxy]pyrazolo [1,5-a]pyridin-6-yl]-5-methyl-1,2,3-triazol-1-yl)azetidin-1-yl]piperidine-1-carbonitrile]
Cc1c(-c2cc(O[C@H](C)c3ccccn3)c3c(C#N)cnn3c2)cnn1C1CN(C2CCN(C#N)CC2)C1 [Example 236, 4-[3-(4-[3-Cyano-4-[(1R)-1-(pyridin-2-yl)ethoxy]pyrazolo [1,5-a]pyridin-6-yl]-5-methylpyrazol-1-yl)azetidin-1-yl]piperidine-1-carbonitrile]
